Data reported in publication PMC12116906.
No constants are given. Whether binding was seen depends on the method and setting. In cells and extracts the contact can be indirect. Some binding calls cover weakened binding; strength is not graded here.

Amino acid sequences for entries named in this document (tags omitted).
UniProt P09216: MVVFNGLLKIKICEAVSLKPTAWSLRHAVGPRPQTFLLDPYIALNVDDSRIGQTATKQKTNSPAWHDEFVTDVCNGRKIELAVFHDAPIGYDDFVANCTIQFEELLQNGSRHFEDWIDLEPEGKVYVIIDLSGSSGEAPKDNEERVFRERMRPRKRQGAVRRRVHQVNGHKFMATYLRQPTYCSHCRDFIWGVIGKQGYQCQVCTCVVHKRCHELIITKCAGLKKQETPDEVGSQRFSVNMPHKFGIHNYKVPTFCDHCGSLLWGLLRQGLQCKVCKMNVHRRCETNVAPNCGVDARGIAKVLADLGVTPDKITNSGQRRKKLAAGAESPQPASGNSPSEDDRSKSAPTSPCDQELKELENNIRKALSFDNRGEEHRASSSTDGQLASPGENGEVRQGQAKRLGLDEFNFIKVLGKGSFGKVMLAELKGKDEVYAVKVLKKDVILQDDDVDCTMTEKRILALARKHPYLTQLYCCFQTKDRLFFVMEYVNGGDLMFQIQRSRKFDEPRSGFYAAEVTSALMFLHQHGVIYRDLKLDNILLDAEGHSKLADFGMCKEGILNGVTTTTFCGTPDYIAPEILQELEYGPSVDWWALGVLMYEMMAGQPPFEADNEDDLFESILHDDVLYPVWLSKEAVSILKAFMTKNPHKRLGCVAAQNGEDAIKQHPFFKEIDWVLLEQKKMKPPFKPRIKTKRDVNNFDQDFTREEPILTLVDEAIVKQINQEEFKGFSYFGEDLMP

Biological target: protein kinase C epsilon (rat (endogenous in neonatal rat ventricle cardiomyocytes)) (UniProt P09216)
Assay: co-IP; endogenous proteins; 100 µg of NRVM cell homogenate protein incubated with anti-PKC-ε antibody or control IgG for 16 h at 4 °C, True-Blot IP beads for 2 h, washed three times with lysis buffer; SIRT1 detected by Western blot; cells untreated or treated with 1 µM DOX for 24 h (less SIRT1 in the precipitate after DOX)

binding: binds
B1: sirtuin-1 (enzyme, UniProt A0A0G2JZ79 1-741)
chain: MADEAALALQAGGSPSAAAAMEAASQPADEPLRKRPRRDGPGLGRSPGEPSAAAAAAAAAAGCEAASAAAPAALWREAAGAAAASAEREAPATAAAGDGDNGPGLRREPRAADDFDDDEGEEEDEAAAAAAAAIGYRDNLLLADEIITNGFHSCESDDDDRASHASSSDWTPRPRIGPYTFVQQHLMIGTDPRTILKDLLPETIPPPELDDMTLWQIVINILSEPPKRKKRKDINTIEDAVKLLQECKKIIVLTGAGVSVSCGIPDFRSRDGIYARLAVDFPDLPDPQAMFDIEYFRKDPRPFFKFAKEIYPGQFQPSLCHKFIALSDKEGKLLRNYTQNIDTLEQVAGIQRIIQCHGSFATASCLICKYKVDCEAVRGDIFNQVVPRCPRCPADEPLAIMKPEIVFFGENLPEQFHRAMKYDKDEVDLLIVIGSSLKVRPVALIPSSIPHEVPQILINREPLPHLHFDVELLGDCDVIINELCHRLGGEYAKLCCNPVKLSEITEKPPRTQKELVHLSELPPTPLHISEDSSSPERTVPQDSSVIATLVDQTIKNKVDDLEVSEPKSCVEEKSQEVQTYRNVESINVENPDFKAVGSSTGDKNERTSVAETVRKCWPNRLAKEQISKRLDGNQYLFVPPNRYIFHGAEVYSDSEDDALSSSSCGSNSDSGTCQSPSLEEPLEDESEIEEFYNGLEDDADRPECAGGSGADGGDQEAVNEAIAMKQELTDVNCTPDKSEHY
